From PubChem BioAssay AID1347076 (National Center for Advancing Translational Sciences (NCATS), 2019)
About 13,000 (3.2%) of roughly 400,000 compounds were called active. Inconclusive results, whose numbers are uncertain, are shown with a selection of clear calls. Calls come from the whole dose curve; as a rule, active = well fitted cell-killing curve with a large enough effect; inconclusive = small, poorly fitted or top-dose-only effect, or effect the other way; inactive = flat fitted curve, though single readings scatter. Where the call is inconclusive, the potency comes from a doubtful curve fit.
% is set by controls: 0 for no effect and ±100 for the full control effect; potency is the fitted concentration of half-maximal effect.

Assay: qHTS assay for MDR1-selective chemotherapeutics: Primary screen using the drug-selected MDR subline cells KB-V1; note: nearly all actives have a fitted effect of over 60% in size
Conditions: KB-V1 MDR cells viability, CellTiter-Glo, 72 h; activity change, negative = cytotoxicity: at 46.1 µM (top of the series)
How it was run: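 Cytotoxicity toward P-gp-expressing KB-V1 cells was determined as loss of CellTiter-Glo luminescence after 72 h at 37 degrees C. Compounds were tested in quantitative HTS format across a concentration range, with curves fitted to normalized data.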
With `Cc1nn(Cc2ccc(C(=O)Nc3ccc(C(=O)OC(C)C)cc3)o2)c(C)c1Cl` the Potency was active: 23.1 µM.
For `C=CCNC(=S)/N=c1/ccccn1C`, the Potency was inconclusive: 14.6 µM [rising, partial curve, poor fit].
With `COc1cc(C)ccc1OCCSc1nc2ccc(NC(=O)c3ccc4c(c3)OCO4)cc2s1` the Potency was “inactive”.
For `Cc1nn(-c2ccccc2)c(N)c1N=O`, the Potency was inconclusive: 25.9 µM [rising, single point].
For `NC(=O)c1ccsc1NC(=O)COC(=O)Cc1c[nH]c2ccccc12`, the Potency was “inactive”.
With `COc1ccc(-c2cc(C(=O)OCC(=O)N3CCOCC3)c3ccccc3n2)cc1` the Potency was inconclusive: 23.1 µM [cytotoxic, single point].
In the case of `N#Cc1c(NCCN)nc(-c2ccco2)c2c1CCCC2`, the Potency is reported as inconclusive: 29.1 µM [cytotoxic, single point].
With `Cc1ccc(-c2cc(C(=O)N3CCN(c4ncccn4)CC3)c3ccccc3n2)cc1` the Potency was inconclusive: 16.4 µM [cytotoxic, single point].
For `O=c1[nH]c2ccccc2n2c(-c3ccncc3)nnc12`, the Potency was inconclusive: 25.9 µM [rising, partial curve, poor fit].
For `CCc1ccc(NC(=O)Cn2c(=O)n(CCCC(=O)NCc3ccccc3OC)c(=O)c3ccccc32)cc1`, the activity change, negative = cytotoxicity was inconclusive: 44.1%.
For `CC(C)N(C(=O)N1CCN(c2ccnc3cc(Cl)ccc23)CC1)C(C)C`, the Potency was inconclusive: 18.4 µM [cytotoxic, single point].
In the case of `O=C1C2CCCN2C(=S)N1c1ccc(Cl)cc1` (stereo not drawn), the Potency is reported as inconclusive: 18.4 µM [rising, single point].
With `CC(C)CNC(=S)NNC(=O)c1csc2c1CCCC2` the Potency was “inactive”.
With `Cc1cccc(Cn2c(C)nc3c(N)c(C)c(C)cc32)c1` the Potency was inconclusive: 25.9 µM [cytotoxic, single point].
With `O=C(Cn1cc(S(=O)(=O)c2ccc(F)cc2)c(=O)c2cc3c(cc21)OCO3)Nc1ccccc1` the Potency was “inactive”.
In the case of `COc1cccc(CN(C)C(=O)c2[nH]c(C)c(C(C)=O)c2C)c1OC`, the Potency is reported as active: 18.4 µM.
In the case of `CSc1nc(C)c(CCO)c(=O)[nH]1`, the Potency is reported as “inactive”.
With `COc1cccc(NC(=O)N2CCOCC2)c1` the Potency was inconclusive: 10.3 µM [rising, partial curve].
With `O=C(Nc1cccc2ccccc12)c1ccc(Cn2cc(Cl)cn2)cc1` the Potency was inconclusive: 16.4 µM [cytotoxic, single point].
With `CN(C)/N=C/C=C1\CCC/C(=C/c2cccs2)C1=O` the Potency was inconclusive: 23.1 µM [cytotoxic, single point].
For `O=[N+]([O-])c1ccc2oc(-c3cccc(O)c3)nc2c1`, the Potency was inconclusive: 23.1 µM [cytotoxic, partial curve, poor fit].
With `C=C[C@@H](C)N(Cc1ccc(OC)cc1)S(=O)(=O)N(Cc1ccccc1)[C@H](C=C)C(C)C` the Potency was inconclusive: 8.2 µM [cytotoxic, partial curve].
For `CC1(C(=O)Nc2ccc3nc[nH]c3c2)CCN1C(=O)C1(c2ccccc2)CC1` (stereo not drawn), the Potency was inconclusive: 20.6 µM [cytotoxic, single point].
In the case of `COc1ccc(OC)c(CN2CCC(C(=O)N3CCN(c4ccccc4F)CC3)CC2)c1`, the Potency is reported as inconclusive: 7.31 µM [cytotoxic, partial curve].
With `Cn1c(NCCCN2CCOCC2)nc2c1c(=O)n(Cc1ccc(Cl)cc1)c(=O)n2C` the Potency was active: 18.4 µM.
For `CCOC(=O)[C@]12CCCC=C1N(Cc1cccc3ccccc13)C(=O)[C@H](CC(=O)NCC1CCCCC1)C2`, the Potency was inconclusive: 9.2 µM [cytotoxic, partial curve].
With `CNC(=O)CSc1nnc(-c2cccnc2)n1-c1ccc(C)cc1` the Potency was inconclusive: 18.4 µM [rising, single point].
With `CCCC[C@@H]1CNC(=S)N1CCC12CC3CC(CC(C3)C1)C2` the Potency was inconclusive: 20.6 µM [rising, single point].
In the case of `Cc1cc(C)c(S(=O)(=O)NC2CCN(Cc3ccccc3)CC2)c(C)c1`, the Potency is reported as inconclusive: 4.11 µM [cytotoxic, full curve].
With `CON1C(=O)C(=O)N(OC)C2CCCCCC21` (stereo not drawn) the Potency was inconclusive: 29.1 µM [rising, single point].
With `O=C(NCc1ccc(Br)cc1)OC1CC2CC1[C@H]1CCCCN1C2=O` (stereo partly drawn) the Potency was “inactive”.
In the case of `CC(C)Nc1nc(NC(N)=S)nc(NC(C)(C)C)n1`, the Potency is reported as “inactive”.
With `CCN(CC)CCn1c(=N)n(CC(O)COc2ccccc2)c2ccccc21` (stereo not drawn) the Potency was “inactive”.
With `C#CCOCCOCCOCCNc1nc(N2CCN(C(=O)[C@H](CCC(=O)O)n3cc([C@@H](N)CCCCN)nn3)CC2)nc(N2CCN(C(=O)[C@H](CCCCN)n3cc([C@@H](N)CC(N)=O)nn3)CC2)n1` the Potency was inconclusive: 2.91 µM [rising, partial curve, poor fit].
For `CC1=C(C(=O)Nc2ccc(C)cc2C)C(CC(C)C)n2nc(SCc3ccccc3C)nc2N1` (stereo not drawn), the Potency was inconclusive: 16.4 µM [rising, partial curve, poor fit].
With `CCO[C@H]1OC(C(=O)N2CCN(Cc3ccc4c(c3)OCO4)CC2)=C[C@@H](C)[C@@H]1CCCO` the Potency was “inactive”.
With `CCOC(=O)c1sc(NC(=O)CCSC)nc1C` the Potency was inconclusive: 18.4 µM [cytotoxic, partial curve].
With `C=CCOc1ccc(Cl)cc1CNCCCN1CCOCC1` the Potency was inconclusive: 4.61 µM [cytotoxic, partial curve].
With `O=C(c1ccc(F)cc1)c1c[nH]c(C(=O)NCc2ccco2)c1` the Potency was “inactive”.
In the case of `CCN1C[C@@H]2[C@@H]3C(=O)N(Cc4ccccc4)C(=O)[C@@H]3[C@](Cc3ccccc3)(C1=O)N2C(=O)c1ccc(Cl)cc1`, the Potency is reported as inconclusive: 0.411 µM [rising, full curve, poor fit].
With `CN1CCN(CC/C=C2/c3ccccc3Sc3ccc(S(=O)(=O)N(C)C)cc32)CC1` the Potency was inconclusive: 13 µM [cytotoxic, partial curve, poor fit].
For `O=C(Cn1cnc2c(cnn2-c2ccc(F)cc2)c1=O)NCCc1ccccc1`, the Potency was inconclusive: 0.651 µM [cytotoxic, full curve, poor fit].
For `O=C1C(=O)N(CCCN2CCOCC2)C(c2ccc(Cl)cc2)/C1=C(\O)c1ccc2c(c1)OCCO2` (stereo not drawn), the Potency was inconclusive: 3.66 µM [rising, partial curve].
For `C[C@@]12C(=O)Nc3cc(F)ccc3C(=O)N1[C@H]1c3cc(Br)ccc3OC[C@@H]1[C@@H]2c1ccccc1`, the Potency was inconclusive: 23.1 µM [cytotoxic, single point].
For `Cc1c([N+](=O)[O-])c(C(=O)NC2CCCCC2)nn1C`, the Potency was inconclusive: 29.1 µM [rising, single point].
With `COc1ccccc1-c1n[nH]nc1C1=CC(=O)C[C@H](c2ccc(F)cc2)C1` the Potency was “inactive”.
In the case of `Brc1ccc(OCCCCCN2CCOCC2)cc1`, the Potency is reported as inconclusive: 16.4 µM [cytotoxic, single point].
For `Cc1ccc(-c2ocnc2C(=O)Nc2ccccc2NC(=O)c2ccccn2)cc1`, the Potency was inconclusive: 5.8 µM [cytotoxic, partial curve].
For `O=C(NC1CCCCCC1)c1c(O)nc2sccn2c1=O`, the Potency was active: 14.6 µM.
In the case of `CC1=C(C(=O)OCc2ccccc2)C(c2ccc3ccccc3c2)NC(=O)N1CCCC(=O)O` (stereo not drawn), the Potency is reported as “inactive”.
In the case of `Cc1nc(C)c(CCNS(=O)(=O)c2ccc(C)c(C)c2)s1`, the Potency is reported as active: 20.6 µM.
In the case of `O=C(O)C1C2C=CC(C2)C1C(=O)NCCC1=CCCCC1` (stereo not drawn), the Potency is reported as “inactive”.
In the case of `COc1cc(OC)cc(C(=O)N2CCCc3ccccc32)c1`, the Potency is reported as “inactive”.
In the case of `CN(c1ccccc1)S(=O)(=O)c1cccc(C(=O)NCC(=O)Nc2ccc(F)c(F)c2F)c1`, the Potency is reported as “inactive”.
For `O=C(CCCc1ccccc1)N1CCN(C2CCCCC2)CC1`, the Potency was “inactive”.
With `C=C(C)COc1ccc(-c2ncncc2-c2ccc(Br)cc2)c(O)c1` the Potency was “inactive”.
For `CCC(C)(C)NC(=O)C(c1ccc(OC)cc1)N(C(=O)CCC(=O)Nc1cc(C)on1)c1ccccc1OC` (stereo not drawn), the Potency was inconclusive: 29.1 µM [cytotoxic, single point].
With `N#Cc1ccccc1COC(=O)c1cc(=O)c2ccccc2o1` the Potency was inconclusive: 29.1 µM [rising, partial curve, poor fit].
With `CC(=O)CCc1ccc(OCCCOc2cccc3cccnc23)cc1` the Potency was inconclusive: 7.31 µM [cytotoxic, partial curve].
With `CCOc1ccccc1-c1nc(-c2cc3ccccc3nc2OC)no1` the Potency was inconclusive: 23.1 µM [cytotoxic, single point].
In the case of `Cc1nc(C)n(C(Oc2ccc(Cl)cc2Cl)C(=O)C(C)(C)C)n1` (stereo not drawn), the Potency is reported as inconclusive: 20.6 µM [cytotoxic, partial curve, poor fit].
With `CCOc1ccc(OCCCCn2ccnc2)cc1` the Potency was inconclusive: 20.6 µM [cytotoxic, partial curve].
With `Cc1ccc(F)cc1NC(=O)COC(=O)C1CCN(c2ccc(C(F)(F)F)cn2)CC1` the Potency was inconclusive: 20.6 µM [cytotoxic, single point].
With `Nc1ccccc1Sc1c[nH]c2ccccc12` the Potency was “inactive”.
In the case of `CCOC(=O)C1(Cc2ccccc2)CCN(Cc2ccc(C3CCCCO3)s2)CC1` (stereo not drawn), the Potency is reported as inconclusive: 5.8 µM [cytotoxic, partial curve, poor fit].
In the case of `CCN(CC)S(=O)(=O)c1ccc(O)c(C(=O)OCC(=O)NC2CCCC2)c1`, the Potency is reported as inconclusive: 3.26 µM [rising, partial curve, poor fit].
For `CCOC(=O)[C@]12CCCC=C1N(Cc1cccc3ccccc13)C(=O)[C@H](CC(=O)N1CCC(c3ccccc3)CC1)C2`, the Potency was “inactive”.
For `CCOC(=O)c1c(NC(=O)CCl)sc(C(=O)N(CC)CC)c1C`, the Potency was inconclusive: 18.4 µM [cytotoxic, single point].
